Test results published in the supplement of paper PMC8728848.
The other results are listed elsewhere or left out.

Columns and labels:
Assay in all cases: glycan array binding signal (z-score within array); higher = stronger binding
Conditions in all cases: glycan notation: IUPAC condensed, linker removed
[1] = target: Fuc(a1-2)Gal6S(b1-3)GlcNAc6S
How it was run: (§1)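 Glycan array data were curated from 3228 arrays in the Consortium for Functional Glycomics database and kept only where the protein sequence was available. Glycan names were converted to IUPAC-condensed notation, and columns mapping to the same glycan were averaged. The binding signal is a within-array Z-score, averaged across arrays of the same protein sequence at different concentrations or buffers and across linkers. Negative Z-scores can be read as non-binding.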

[2] = target: Fuc(a1-2)Gal6S(b1-4)Glc
How it was run: as §1

[3] = target: Fuc(a1-2)Gal6S(b1-4)Glc6S
How it was run: as §1

[4] = target: Fuc(a1-2)[Gal(a1-3)]Gal
How it was run: as §1

[5] = target: Fuc(a1-2)[Gal(a1-3)]Gal(b1-3)GalNAc
How it was run: as §1

[6] = target: Fuc(a1-2)[Gal(a1-3)]Gal(b1-3)GalNAc(b1-3)Gal(a1-4)Gal(b1-4)Glc
How it was run: as §1

[7] = target: Fuc(a1-2)[Gal(a1-3)]Gal(b1-3)GlcNAc
How it was run: as §1

[8] = target: Fuc(a1-2)[Gal(a1-3)]Gal(b1-3)GlcNAc(b1-2)Man(a1-3)[Fuc(a1-2)[Gal(a1-3)]Gal(b1-3)GlcNAc(b1-2)Man(a1-6)]Man(b1-4)GlcNAc(b1-4)GlcNAc
How it was run: as §1

[9] = target: Fuc(a1-2)[Gal(a1-3)]Gal(b1-3)GlcNAc(b1-2)Man(a1-3)[Fuc(a1-2)[Gal(a1-3)]Gal(b1-3)GlcNAc(b1-2)Man(a1-6)]Man(b1-4)GlcNAc(b1-4)[Fuc(a1-6)]GlcNAc
How it was run: as §1

[10] = target: Fuc(a1-2)[Gal(a1-3)]Gal(b1-3)GlcNAc(b1-3)GalNAc
How it was run: as §1

[11] = target: Fuc(a1-2)[Gal(a1-3)]Gal(b1-3)GlcNAc(b1-6)GalNAc
How it was run: as §1

[12] = target: Fuc(a1-2)[Gal(a1-3)]Gal(b1-4)Glc
How it was run: as §1

[13] = target: Fuc(a1-2)[Gal(a1-3)]Gal(b1-4)GlcNAc
How it was run: as §1

[14] = target: Fuc(a1-2)[Gal(a1-3)]Gal(b1-4)GlcNAc(b1-2)Man
How it was run: as §1

[15] = target: Fuc(a1-2)[Gal(a1-3)]Gal(b1-4)GlcNAc(b1-2)Man(a1-3)[Fuc(a1-2)[Gal(a1-3)]Gal(b1-4)GlcNAc(b1-2)Man(a1-6)]Man(b1-4)GlcNAc(b1-4)GlcNAc
How it was run: as §1

[16] = target: Fuc(a1-2)[Gal(a1-3)]Gal(b1-4)GlcNAc(b1-2)Man(a1-3)[Fuc(a1-2)[Gal(a1-3)]Gal(b1-4)GlcNAc(b1-2)Man(a1-6)]Man(b1-4)GlcNAc(b1-4)[Fuc(a1-6)]GlcNAc
How it was run: as §1

[17] = target: Fuc(a1-2)[Gal(a1-3)]Gal(b1-4)GlcNAc(b1-3)GalNAc
How it was run: as §1

[18] = target: Fuc(a1-2)[Gal(a1-3)]Gal(b1-4)GlcNAc(b1-3)[Fuc(a1-2)[Gal(a1-3)]Gal(b1-4)GlcNAc(b1-6)]GalNAc
How it was run: as §1

[19] = target: Fuc(a1-2)[Gal(a1-3)]Gal(b1-4)GlcNAc(b1-6)GalNAc
How it was run: as §1

[20] = target: Fuc(a1-2)[Gal(a1-3)]Gal(b1-4)[Fuc(a1-3)]Glc
How it was run: as §1

[21] = target: Fuc(a1-2)[Gal(a1-3)]Gal(b1-4)[Fuc(a1-3)]GlcNAc
How it was run: as §1

[22] = target: Fuc(a1-2)[Gal(a1-3)]Gal(b1-4)[Fuc(a1-3)]GlcNAc(b1-3)GalNAc
How it was run: as §1

[23] = target: Fuc(a1-2)[Gal(a1-4)]Gal(b1-4)GlcNAc
How it was run: as §1

[24] = target: Fuc(a1-2)[GalNAc(a1-3)]Gal
How it was run: as §1

[25] = target: Fuc(a1-2)[GalNAc(a1-3)]Gal(b1-3)GalNAc(a1-3)[Fuc(a1-2)]Gal(b1-4)GlcNAc
How it was run: as §1

[26] = target: Fuc(a1-2)[GalNAc(a1-3)]Gal(b1-3)GalNAc(b1-3)Gal(a1-4)Gal(b1-4)Glc
How it was run: as §1

[27] = target: Fuc(a1-2)[GalNAc(a1-3)]Gal(b1-3)GlcNAc
How it was run: as §1

[28] = target: Fuc(a1-2)[GalNAc(a1-3)]Gal(b1-3)GlcNAc(b1-2)Man(a1-3)[Fuc(a1-2)[GalNAc(a1-3)]Gal(b1-3)GlcNAc(b1-2)Man(a1-6)]Man(b1-4)GlcNAc(b1-4)GlcNAc
How it was run: as §1

[29] = target: Fuc(a1-2)[GalNAc(a1-3)]Gal(b1-3)GlcNAc(b1-2)Man(a1-3)[Fuc(a1-2)[GalNAc(a1-3)]Gal(b1-3)GlcNAc(b1-2)Man(a1-6)]Man(b1-4)GlcNAc(b1-4)[Fuc(a1-6)]GlcNAc
How it was run: as §1

[30] = target: Fuc(a1-2)[GalNAc(a1-3)]Gal(b1-3)GlcNAc(b1-3)GalNAc
How it was run: as §1

[31] = target: Fuc(a1-2)[GalNAc(a1-3)]Gal(b1-3)GlcNAc(b1-6)GalNAc
How it was run: as §1

[32] = target: Fuc(a1-2)[GalNAc(a1-3)]Gal(b1-4)Glc
How it was run: as §1

[33] = target: Fuc(a1-2)[GalNAc(a1-3)]Gal(b1-4)GlcNAc
How it was run: as §1

[34] = target: Fuc(a1-2)[GalNAc(a1-3)]Gal(b1-4)GlcNAc(b1-2)Man
How it was run: as §1

[35] = target: Fuc(a1-2)[GalNAc(a1-3)]Gal(b1-4)GlcNAc(b1-2)Man(a1-3)[Fuc(a1-2)[GalNAc(a1-3)]Gal(b1-4)GlcNAc(b1-2)Man(a1-6)]Man(b1-4)GlcNAc(b1-4)GlcNAc
How it was run: as §1

[36] = target: Fuc(a1-2)[GalNAc(a1-3)]Gal(b1-4)GlcNAc(b1-2)Man(a1-3)[Fuc(a1-2)[GalNAc(a1-3)]Gal(b1-4)GlcNAc(b1-2)Man(a1-6)]Man(b1-4)GlcNAc(b1-4)[Fuc(a1-6)]GlcNAc
How it was run: as §1

[37] = target: Fuc(a1-2)[GalNAc(a1-3)]Gal(b1-4)GlcNAc(b1-3)Gal(b1-4)GlcNAc
How it was run: as §1

[38] = target: Fuc(a1-2)[GalNAc(a1-3)]Gal(b1-4)GlcNAc(b1-3)Gal(b1-4)GlcNAc(b1-3)Gal(b1-4)GlcNAc
How it was run: as §1

[39] = target: Fuc(a1-2)[GalNAc(a1-3)]Gal(b1-4)GlcNAc(b1-3)GalNAc
How it was run: as §1

[40] = target: Fuc(a1-2)[GalNAc(a1-3)]Gal(b1-4)GlcNAc(b1-3)[Fuc(a1-2)[GalNAc(a1-3)]Gal(b1-4)GlcNAc(b1-6)]GalNAc
How it was run: as §1

[41] = target: Fuc(a1-2)[GalNAc(a1-3)]Gal(b1-4)GlcNAc(b1-6)GalNAc
How it was run: as §1

[42] = target: Fuc(a1-2)[GalNAc(a1-3)]Gal(b1-4)[Fuc(a1-3)]GlcNAc
How it was run: as §1

[43] = target: Fuc(a1-2)[GalNAc(a1-3)]Gal(b1-4)[Fuc(a1-3)]GlcNAc(b1-3)GalNAc
How it was run: as §1

[44] = target: Fuc(a1-2)[GalNAc(a1-4)]Gal(b1-4)GlcNAc
How it was run: as §1

[45] = target: Fuc(a1-2)[GalNAc(b1-3)]Gal
How it was run: as §1

B1: Pwp6 (Candida glabrata) (protein)
chain: MGSSHHHHHHSSGLVPRGSHMASANLPKLTNICQIPDNVKKTSGFKGEIRRIGLFPPGGDYTYLLKFPSTGSTASDTISLTTKPQLSTSGWFPSLFGHTYFIKADLLVYMVAYFVPTETGEYTFKLVNSDDAAVMYVGNPSAFPCGSIDTWPEPRKEDINVCDKISASTKLYMEKGLAYPVRLVWYNGGGDGQFNAQFIDPSGTTHTDWNGYVWQYDACTDCDYK
[1]
  glycan array binding signal (z-score): 0.097
[2]
  glycan array binding signal (z-score): -0.392
[3]
  glycan array binding signal (z-score): -0.287
[4]
  glycan array binding signal (z-score): -0.563
[5]
  glycan array binding signal (z-score): 0.537
[6]
  glycan array binding signal (z-score): 0.564
[7]
  glycan array binding signal (z-score): -0.701
[8]
  glycan array binding signal (z-score): 0.3
[9]
  glycan array binding signal (z-score): 0.262
[10]
  glycan array binding signal (z-score): -0.222
[11]
  glycan array binding signal (z-score): -0.097
[12]
  glycan array binding signal (z-score): -0.608
[13]
  glycan array binding signal (z-score): -0.615
[14]
  glycan array binding signal (z-score): -0.776
[15]
  glycan array binding signal (z-score): -0.312
[16]
  glycan array binding signal (z-score): 0.056
[17]
  glycan array binding signal (z-score): -0.517
[18]
  glycan array binding signal (z-score): -0.166
[19]
  glycan array binding signal (z-score): -0.069
[20]
  glycan array binding signal (z-score): -0.621
[21]
  glycan array binding signal (z-score): -0.483
[22]
  glycan array binding signal (z-score): -0.152
[23]
  glycan array binding signal (z-score): -0.961
[24]
  glycan array binding signal (z-score): -0.744
[25]
  glycan array binding signal (z-score): -0.6
[26]
  glycan array binding signal (z-score): 0.345
[27]
  glycan array binding signal (z-score): -0.708
[28]
  glycan array binding signal (z-score): 0.07
[29]
  glycan array binding signal (z-score): -0.747
[30]
  glycan array binding signal (z-score): 0.585
[31]
  glycan array binding signal (z-score): -0.126
[32]
  glycan array binding signal (z-score): -0.626
[33]
  glycan array binding signal (z-score): -0.481
[34]
  glycan array binding signal (z-score): -0.201
[35]
  glycan array binding signal (z-score): -0.155
[36]
  glycan array binding signal (z-score): 0.167
[37]
  glycan array binding signal (z-score): 0.506
[38]
  glycan array binding signal (z-score): 0.091
[39]
  glycan array binding signal (z-score): 0.542
[40]
  glycan array binding signal (z-score): -0.116
[41]
  glycan array binding signal (z-score): -0.042
[42]
  glycan array binding signal (z-score): -0.128
[43]
  glycan array binding signal (z-score): 0.217
[44]
  glycan array binding signal (z-score): -0.729
[45]
  glycan array binding signal (z-score): -0.786
